The list is a part of this screen's results and no random one: it gathers tests that were run many times, whatever their T/C, doses with no T/C, and many T/C values between a quarter and a half above the control. Further doses and runs are listed elsewhere. T/C: endpoint of the treated group in % of that of the vehicle group. Some doses have a count of surviving animals in place of a T/C: the source files T/C as zero there, which appears to mark a toxic dose or a test without result, not a measured value. Some survivor counts are full or nearly so, which does not show that the dose was tolerated: the source hardly ever lists a survival T/C far under the control, and the zero likely stands for such cases as well. Survivors were counted at the toxicity check, usually on the fifth day, unless a day is given; later deaths do not show. Schedule codes are those of the source, taken here to give the interval after Q, in days (D) or hours (H), and the number of doses after X. For survival time, the PubChem record calls one and a half times the control and up active, and a quarter to a half above the control has no call in these data; cut-offs in other NCI protocols can differ. Marks such as (2×) give the number of equal values in this list. Some entries were tested several times; their values stand side by side, smallest first.
Tested on: L1210 leukemia ip in BDF1 mice, survival T/C
Assay: NCI In Vivo Anticancer Drug Screen. Data for tumor model L1210 Leukemia (intraperitoneal) in B6D2F1 (BDF1) mice
Details: T/C endpoint: median survival time, vehicle: saline, higher T/C = longer survival

## O=P1(N(CCCl)CCCl)NCCCO1 (centres undefined)
dose: 65.0 mg/kg/injection, schedule: Q07DX003 (ip), evaluated on day 32
  T/C: 130 and 133 % of control
dose: 65.0 mg/kg/injection, schedule: Q07DX003 (ip), evaluated on day 46
  T/C: 136 % of control
dose: 65.0 mg/kg/injection, schedule: Q07DX004 (ip), evaluated on day 7
  T/C: 162 and 166 % of control
dose: 65.0 mg/kg/injection, schedule: Q07DX004 (ip), evaluated on day 60
  T/C: 166 % of control (2×)
dose: 70.0 mg/kg/injection, schedule: Q01DX001 (ip), evaluated on day 5
  T/C: 134 % of control
dose: 70.0 mg/kg/injection, schedule: Q01DX001 (ip), evaluated on day 7
  T/C: 138 % of control
dose: 70.0 mg/kg/injection, schedule: Q01DX001 (sc)
  T/C: 146 % of control
dose: 75.0 mg/kg/injection, schedule: Q01DX001 (ip)
  T/C: 147 % of control
dose: 75.0 mg/kg/injection, schedule: Q07DX003 (ip), evaluated on day 7
  T/C: 145, 150, 160 % of control
dose: 75.0 mg/kg/injection, schedule: Q07DX003 (ip), evaluated on day 34
  T/C: 145 % of control
dose: 75.0 mg/kg/injection, schedule: Q07DX003 (ip), evaluated on day 63
  T/C: 150 and 152 % of control
dose: 80.0 mg/kg/injection, schedule: Q01DX001 (ip), evaluated on day 8
  T/C: 142 % of control
dose: 80.0 mg/kg/injection, schedule: Q01DX001 (ip), evaluated on day 30
  T/C: 142 % of control
dose: 80.0 mg/kg/injection, schedule: Q01DX005 (ip)
  survivor count: 5 of 6
dose: 80.0 mg/kg/injection, schedule: Q01DX009 (ip), evaluated on day 25
  T/C: 115 % of control
dose: 80.0 mg/kg/injection, schedule: Q01DX009 (ip), evaluated on day 30
  T/C: 100, 132, 146 % of control
dose: 100.0 mg/kg/injection, schedule: Q01DX001 (ip), evaluated on day 7
  T/C: 126, 132, 140, 145, 148 (2×), 162 (2×), 164, 165, 186 % of control
dose: 100.0 mg/kg/injection, schedule: Q01DX001 (ip), evaluated on day 26
  T/C: 126 % of control
dose: 100.0 mg/kg/injection, schedule: Q01DX001 (ip), evaluated on day 30
  T/C: 138, 146, 155 % of control
dose: 100.0 mg/kg/injection, schedule: Q01DX001 (ip), evaluated on day 35
  T/C: 164 % of control
dose: 100.0 mg/kg/injection, schedule: Q01DX001 (ip), evaluated on day 43
  T/C: 130 % of control
dose: 100.0 mg/kg/injection, schedule: Q01DX001 (ip), evaluated on day 44
  T/C: 160 % of control
dose: 100.0 mg/kg/injection, schedule: Q01DX001 (ip), evaluated on day 45
  T/C: 140 % of control
dose: 100.0 mg/kg/injection, schedule: Q01DX001 (ip), evaluated on day 62
  T/C: 186 % of control
dose: 100.0 mg/kg/injection, schedule: Q01DX001 (ip), evaluated on day 63
  T/C: 140 and 165 % of control
dose: 100.0 mg/kg/injection, schedule: Q01DX001 (ip), evaluated on day 64
  T/C: 159 % of control
dose: 100.0 mg/kg/injection, schedule: Q08DX002 (ip), evaluated on day 7
  T/C: 143, 160, 221 % of control
dose: 100.0 mg/kg/injection, schedule: Q08DX002 (ip), evaluated on day 43
  T/C: 150 % of control
dose: 100.0 mg/kg/injection, schedule: Q08DX002 (ip), evaluated on day 44
  T/C: 205 % of control
dose: 100.0 mg/kg/injection, schedule: Q08DX002 (ip), evaluated on day 46
  T/C: 144 % of control
dose: 100.0 mg/kg/injection, schedule: Q08DX003 (ip), evaluated on day 7
  T/C: 144 % of control
dose: 100.0 mg/kg/injection, schedule: Q08DX003 (ip), evaluated on day 45
  T/C: 140 % of control
dose: 108.0 mg/kg/injection, schedule: Q01DX001 (ip), evaluated on day 5
  T/C: 137, 155, 197 % of control
dose: 108.0 mg/kg/injection, schedule: Q01DX001 (ip), evaluated on day 7
  T/C: 150, 156, 159, 187 % of control
dose: 108.0 mg/kg/injection, schedule: Q01DX001 (ip), evaluated on day 36
  T/C: 185 % of control
dose: 108.0 mg/kg/injection, schedule: Q01DX001 (ip), evaluated on day 40
  T/C: 131 % of control
dose: 108.0 mg/kg/injection, schedule: Q01DX001 (ip), evaluated on day 45
  T/C: 155 % of control
dose: 108.0 mg/kg/injection, schedule: Q01DX001 (ip), evaluated on day 46
  T/C: 152 % of control
dose: 108.0 mg/kg/injection, schedule: Q01DX001 (ip), evaluated on day 60
  T/C: 162 % of control
dose: 108.0 mg/kg/injection, schedule: Q01DX001 (ip), evaluated on day 62
  T/C: 155 % of control
dose: 108.0 mg/kg/injection, schedule: Q01DX001 (ip), evaluated on day 69
  T/C: 166 % of control
dose: 108.0 mg/kg/injection, schedule: Q01DX001 (ip), evaluated on day 90
  T/C: 161 % of control
dose: 108.0 mg/kg/injection, schedule: Q07DX003 (ip), evaluated on day 7
  T/C: 183, 184, 204 % of control
dose: 108.0 mg/kg/injection, schedule: Q07DX003 (ip), evaluated on day 32
  T/C: 183 and 184 % of control
